Source: the supplement of paper PMC8866396
± gives the standard deviation of the averaged measurements. Some of the results follow. This data set is noisy: repeats of one test often differ as much as different tests do.

These compounds were tested on IL-6-GFP PC-9 (assay: IL-6-GFP fluorescence relative to DMSO control (fraction of control); higher = more IL-6-GFP expression). Conditions: compound concentration: 10 uM; treatment time: 48 h.
Experimental: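 IL-6-GFP-overexpressing PC-9 and PC-9GR EGFR-mutant lung cancer cells (3000 cells/well, 96-well) were treated for 48 h with each compound of the Selleck L2000 library at 10 uM. IL-6-GFP fluorescence was read on a high-content screening system, and viability by CCK-8 absorbance on a parallel plate set. Each value was normalised as compound well / DMSO control well; two independent replicates.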

SMILES	IL-6-GFP fluorescence
COc1c2occc2c(OC)c2c(=O)cc(C)oc12 [Khellin]	0.734 ± 0.08
CC(C)C1C(=O)NC(CCCNC(=N)N)C(=O)NCC(=O)NC(CC(=O)O)C(=O)NC(Cc2ccccc2)C(=O)N1C.O=C(O)C(F)(F)F (stereo unspecified)	0.844 ± 0.021
CN1C2=CC(=O)/C(=N\NC(N)=O)C=C2CC1S(=O)(=O)[O-].[Na+] (stereo unspecified) [Carbazochrome sodium sulfonate (AC-17)]	0.8378 ± 0.0024
Nc1nc(=S)c2[nH]cnc2[nH]1 [Thioguanine]	0.795 ± 0.045
CC#CC(=O)N1CCCC1c1nc(-c2ccc(C(=O)Nc3ccccn3)cc2)c2c(N)nccn12 (stereo unspecified) [Acalabrutinib (ACP-196)]	1.24 ± 0.26
O=C(OCCOCCO)c1ccccc1Nc1cccc(C(F)(F)F)c1 [Etofenamate]	0.956 ± 0.0097
CCC(=O)OC1(C(=O)SCF)C(C)CC2C3CC(F)C4=CC(=O)C=CC4(C)C3(F)C(O)CC21C (stereo unspecified) [Fluticasone propionate]	0.922 ± 0.21
CC1(C(=O)O)CCC2(C)CCC3(C)C(=CC(=O)C4C5(C)CCC(OC6OC(C(=O)O)C(O)C(O)C6OC6OC(C(=O)O)C(O)C(O)C6O)C(C)(C)C5CCC43C)C2C1 (stereo unspecified) [Glycyrrhizin (Glycyrrhizic Acid)]	0.864 ± 0.27
COc1ccc2cc(CCC(C)=O)ccc2c1 [Nabumetone]	1.03 ± 0.017
CC(N)c1ccc(C(=O)Nc2ccnc3[nH]ccc23)cc1.Cl.Cl (stereo unspecified)	0.841 ± 0.26
Cl.Nc1ccn(C2OC(CO)C(O)C2(F)F)c(=O)n1 (stereo unspecified) [Gemcitabine HCl]	0.741 ± 0.13
